The values below come from publication PMC8671951.

Protein sequences, listed by entry. Tags and fused reporters are not part of them. Residues count along the entry.
UniProt P16070, 21-178: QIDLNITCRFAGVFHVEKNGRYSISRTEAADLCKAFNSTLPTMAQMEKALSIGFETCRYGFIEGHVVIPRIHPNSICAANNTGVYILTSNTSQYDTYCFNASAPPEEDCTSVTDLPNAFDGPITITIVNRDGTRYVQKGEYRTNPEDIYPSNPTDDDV

The exact form of at least one protein or probe is not confirmed. For part of these data: Weaker means in comparison with the reference protein, sequence or condition of that experiment. For part of these data: At least one result comes from cells or an extract, where the contact may be indirect.

Common to all, as to assay: sandwich ELISA
In general terms: ELISA stands for enzyme-linked immunosorbent assay.

The test system of one data set is CD44E (CD44v8-10). The conditions noted are these: 5 mM Mg2+; ELISA: 1X binding buffer (DPBS, 4.5 g/L glucose, 5 mM MgCl2, 100 mg/L yeast tRNA, 1 g/L BSA), room temperature, 1 h; pH not stated; protein in a lysate after overexpression; single-stranded DNA.
A further data set relates to CD44s (standard isoform). Conditions: 5 mM Mg2+; ELISA: 1X binding buffer (DPBS, 4.5 g/L glucose, 5 mM MgCl2, 100 mg/L yeast tRNA, 1 g/L BSA), room temperature, 1 h; pH not stated; protein in a lysate after overexpression; single-stranded DNA.
In the next data set the target is CD44 HABD (UniProt P16070). The conditions noted are these: 5 mM Mg2+, hardly associated (Results), 'does not bind' (Discussion); ELISA: 1X binding buffer (DPBS, 4.5 g/L glucose, 5 mM MgCl2, 100 mg/L yeast tRNA, 1 g/L BSA), room temperature, 1 h; pH not stated; recombinant protein; protein details: His; single-stranded DNA.

As a reminder, the Kd is the equilibrium constant for the complex coming apart.

Turning to “ATCCAGAGTGACGCAGCATCGCAACGATTAGTATGCACCCACCGTATAGGTTGGTCTCTGGACACGGTGGCTTAGT [CD44-Apt1, biotin-labelled]”, the Kd stood at 1.22 nM in the data set on CD44E (CD44v8-10) and 2.09 nM with CD44s (standard isoform). In addition, the binding result with CD44 HABD was “binds more weakly”.
